# Data: PubChem BioAssay AID493014 (National Center for Advancing Translational Sciences (NCATS), 2011)
# Some of the results follow. Shown are side measurements of this screen, not its main read-out; they come without a call. Compounds called inactive in the main read-out are mostly missing here. Potencies come from curve fits of mixed quality, noted in brackets.
# Assay: qHTS Assay to Find Inhibitors of Chronic Active B-Cell Receptor Signaling
# Settings: ABC-DLBCL IkBa-CBG/CBR reporter, luminescence ratio (green luciferase fused to IkBa over red control in TMD8 lymphoma cells), 4 h
# Summary of the method: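 TMD8 human ABC-DLBCL cells with doxycycline-inducible IκBα–green luciferase fusion and unfused red luciferase, in 0.5% FBS medium; compounds up to 46 uM, 4 h at 37C. Green/red luminescence ratio, filter-overlap corrected, fitted to concentration-response curves.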
# [1] = measured here: IkBa-CBG green luminescence
# [2] = measured here: CBR red luminescence, cell number
SMILES,AC50 [1],AC50 [2]
Cc1ccc(-c2nc3ccccc3c(=O)n2-c2cccc(C)n2)cc1,"4.47 µM [rising, partial curve, poor fit]",–
COc1ccc(-c2nc3ccccc3c(=O)n2-c2ccc(OC)cc2)cc1,–,"0.1 µM [rising, full curve, poor fit]"
O=c1[nH]c(=O)n(-c2cccc3ccccc23)c(O)c1C=NCCCn1ccnc1,–,"11.6 µM [falling, single point]"
Cn1c(NN=O)nc2ccccc21,–,"35.5 µM [falling, single point]"
O=C(c1cc(S(=O)(=O)N2CCCCC2)ccc1F)N1CCC2(CC1)OCCO2,–,"29.1 µM [falling, single point]"
C=CCc1ccc(OC(=O)NC2CCCCC2)c(OC)c1,–,"35.5 µM [rising, single point]"
CN(C)CCN=Cc1c(O)n(-c2cccc3ccccc23)c(=O)[nH]c1=O,–,"0.651 µM [rising, partial curve, poor fit]"
NP(=O)(Oc1ccc(Cl)cc1)Oc1ccc(Cl)cc1,–,"8.91 µM [falling, partial curve, poor fit]"
CCCCC[C@H](O)/C=C/[C@@H]1[C@@H](C/C=C\CCCC(=O)O)[C@H]2CO[C@@H]1C2,–,"3.16 µM [rising, full curve]"
O=C1NC(=O)C(=Cc2ccccc2OCCOc2ccc([N+](=O)[O-])cc2)C(=O)N1,–,"12.6 µM [rising, single point]"
CC(N)Cc1c[nH]c2cc3c(cc12)OCCO3 (configuration not stated),–,"6.51 µM [rising, single point]"
O=c1c2ccccc2ccc2ccc(P(=O)(O)O)cc12,–,"0.731 µM [rising, full curve, poor fit]"
COc1ccc2c3c1OC1C(=O)CC[C@@]4(O)[C@@H](C2)N(C)CC[C@]314 (some centres not stated),–,"16.4 µM [falling, partial curve, poor fit]"
COC(=O)C1=C(c2ccc(F)cc2F)C[C@@H]2CC[C@H]1N2C(=O)NCCO,–,"20.6 µM [rising, single point]"
CCCC[C@@H](C)C[C@@H](C)C(=O)N(C)[C@@H](CC(C)C)C(=O)N[C@H](C(=O)N(C)[C@H](C(=O)N1C[C@@H](O)C[C@H]1C(=O)N1C(=O)C=C[C@@H]1C)C(C)C)C(C)OC(C)=O (some centres not stated),"0.00517 µM [falling, full curve, poor fit]","29.1 µM [falling, single point]"
NC(=O)OCCSc1nnc(-c2cccc(C(N)=S)c2)o1,–,"20.6 µM [rising, partial curve, poor fit]"
CC1(C)Cc2c(C#N)c(N3CCNCC3)nc(-c3ccco3)c2CS1,–,"3.55 µM [falling, full curve, poor fit]"
OC12ONC(c3ccccn3)C1N1CCC2CC1 (configuration not stated),–,"18.4 µM [falling, single point]"
O=C1NC(=O)N(c2ccccc2)C(=O)/C1=C\c1ccc([N+](=O)[O-])o1,–,"3.98 µM [rising, single point]"
CCC(COC(=O)c1cc(OC)c(OC)c(OC)c1)(c1ccccc1)N(C)C (configuration not stated),–,"11.2 µM [rising, partial curve, poor fit]"
O=C1CN=C(c2ccc(Cl)cc2)c2oc3ccccc3c2N1,–,"31.6 µM [rising, single point]"

SMILES,AC50 [1],AC50 [2]
Cn1cc(C(=O)Cc2ccccc2)c2ccccc21,–,"2.31 µM [rising, full curve, poor fit]"
COc1ccc(Cl)cc1C(=O)C1CCCN(Cc2cnc(C)s2)C1 (configuration not stated),–,"1.78 µM [rising, partial curve, poor fit]"
COc1cccc(N=Cc2c(O)n(Cc3ccco3)c(=O)[nH]c2=O)c1,–,"35.5 µM [falling, single point]"
Cc1cccc(-n2c(C)nc3cc(C(=O)N4CCOCC4)ccc32)c1,–,"15.8 µM [rising, partial curve, poor fit]"
CN(C)C1C(=O)C(C(N)=O)=C(O)C2(O)C(=O)C3=C(O)c4c(O)cccc4C(C)(O)C3C(O)C12 (configuration not stated),–,"14.1 µM [rising, partial curve, poor fit]"
Cc1ccc(C2SCC(=O)Nc3c2c(=O)[nH]n3C2CCOC(C)(C)C2)cc1 (configuration not stated),–,"23.1 µM [rising, single point]"
COc1ccc2c(c1)/C(=C/c1cnc[nH]1)C(=O)N2,–,"35.5 µM [falling, single point]"
CN1CCN(CC(=O)Nc2nc(-c3c[nH]c4ccccc34)cs2)CC1,–,"10 µM [falling, partial curve]"
CCSc1nnc([C@@H](N)Cc2ccccc2)o1,–,"6.51 µM [rising, single point]"
COc1ccc2c(c1)[nH]c1c(C)nccc12,–,"9.2 µM [falling, partial curve]"
CCCCn1c(N)c(C(=O)NCc2cccs2)c2nc3ccccc3nc21,–,"7.94 µM [falling, partial curve]"
O=C(C(Cc1ccccc1)NS(=O)(=O)c1ccc(F)cc1)N1CCC2(CC1)OCCO2 (configuration not stated),–,"2.06 µM [falling, full curve, poor fit]"
C/C(=N\NC(=O)CNc1cccc(C(F)(F)F)c1)c1cccs1,–,"17.8 µM [rising, partial curve, poor fit]"
CC(C)c1oc(=O)cc2c1[C@@H](O)[C@H]1OC(=O)[C@@]3(C)C[C@@H](O)[C@@H](O)[C@@]2(C)C13 (some centres not stated),–,"20.6 µM [falling, partial curve]"
Nc1c(C(=O)NCc2ccco2)c2nc3ccccc3nc2n1Cc1ccc(F)cc1,–,"8.2 µM [falling, partial curve, poor fit]"
CNC(=O)Oc1ccc(-c2cn3cc(C)ccc3n2)cc1,–,"18.4 µM [falling, partial curve]"
CC(C)n1c(=O)c(C=Nc2ccc(S(N)(=O)=O)cc2)c(O)n(Cc2ccco2)c1=O,–,"16.4 µM [falling, single point]"
CCN(CC)C(=O)c1ccc(NC(=O)CCCSc2ccccc2)cc1,–,"5.01 µM [rising, partial curve, poor fit]"
COC(=O)C1=C(c2ccc(F)cc2OCc2ccccc2)C[C@@H]2CC[C@H]1N2C(=O)NCc1ccccc1Cl,–,"16.4 µM [falling, single point]"
Brc1ccc(CN2CCNCC2)s1,–,"13 µM [rising, partial curve, poor fit]"
CCCCn1c(=O)c(C(=O)NCc2ccncc2)c(O)c2ccccc21,–,"12.6 µM [falling, single point]"

SMILES,AC50 [1],AC50 [2]
Cc1nc2c(=O)n(C)c(=O)nc-2n(C)n1,"7.31 µM [rising, partial curve, poor fit]","2.06 µM [falling, full curve]"
CN1C(=O)c2ccccc2NC(=O)[C@]12O[C@@H]2c1ccccc1,–,"35.5 µM [rising, single point]"
CCn1cc(CN2CCCC(C(=O)c3sccc3C)C2)cn1 (configuration not stated),–,"0.0891 µM [rising, full curve, poor fit]"
CC1CN=C(NCc2ccccc2Cl)S1 (configuration not stated),–,"14.1 µM [falling, single point]"
COc1ccc2[nH]c(C)c(CCNCc3cn(C)c4ccccc34)c2c1,–,"23.1 µM [falling, partial curve, poor fit]"
COc1ccc2c(c1)c(C(=O)O)c(C)n2C(C)C,–,"8.2 µM [rising, partial curve]"
Cc1ccc(CN2CC3CC(C2)c2cccc(=O)n2C3)cc1 (configuration not stated),–,"9.2 µM [falling, partial curve, poor fit]"
Cc1ccc(N2C(=O)NC(=O)/C(=C\c3cnc(-c4ccccc4)nc3)C2=O)cc1,–,"0.92 µM [rising, partial curve]"
O=C1NC(=S)NC(=O)C1=Cc1cccn1-c1ccc(O)cc1,"35.5 µM [falling, single point]","22.4 µM [rising, partial curve]"
O=C(c1cc(C(=O)NCc2ccccc2)c(=O)n(Cc2ccccc2)c1)c1cc(Br)ccc1O,–,"0.164 µM [rising, full curve, poor fit]"
COc1ccc(CN2CCCC(C(=O)c3sccc3C)C2)cc1O (configuration not stated),–,"35.5 µM [rising, single point]"
CCc1ccccc1OCC(=O)Nc1nc(-c2cccnc2)cs1,–,"35.5 µM [rising, single point]"
O=C(COc1ccc2ccc(=O)oc2c1)N1CCC(C(=O)O)(c2ccccc2)CC1,–,"35.5 µM [falling, single point]"
CCN(CC)CCCN=Cc1c(O)n(Cc2ccc(F)cc2)c(=O)[nH]c1=O,–,"0.251 µM [rising, full curve, poor fit]"
C=C(c1ccccc1)P(=O)(O)O,–,"29.1 µM [rising, single point]"
CN1C2CCC1CC(OC(=O)CCN1CCCC1)C2 (configuration not stated),–,"23.1 µM [rising, partial curve, poor fit]"
O=C(Nc1ccc(Cl)cc1)N1CC2CC(C1)c1cccc(=O)n1C2 (configuration not stated),–,"0.631 µM [rising, partial curve]"
COc1ccc(CNCCc2c[nH]c3ccccc23)c(OC)c1C,–,"14.1 µM [falling, single point]"
COc1cc2c(cc1OC)-c1c(OC)c(OC)cc3c1[C@H](C2)N(C)CC3,–,"14.6 µM [rising, partial curve, poor fit]"
c1cc(C2N3CCCN2CC3)ccn1 (configuration not stated),–,"5.62 µM [rising, single point]"
O=C1C(=O)c2ccccc2-c2ccccc21,"0.891 µM [rising, full curve]","0.562 µM [falling, full curve]"

# Sorted by molecular weight (descending): some entries from above
SMILES,AC50 [1],AC50 [2]
O=C(c1cc(C(=O)NCc2ccccc2)c(=O)n(Cc2ccccc2)c1)c1cc(Br)ccc1O,–,"0.164 µM [rising, full curve, poor fit]"
O=C(COc1ccc2ccc(=O)oc2c1)N1CCC(C(=O)O)(c2ccccc2)CC1,–,"35.5 µM [falling, single point]"
Cc1ccc(N2C(=O)NC(=O)/C(=C\c3cnc(-c4ccccc4)nc3)C2=O)cc1,–,"0.92 µM [rising, partial curve]"
CCN(CC)CCCN=Cc1c(O)n(Cc2ccc(F)cc2)c(=O)[nH]c1=O,–,"0.251 µM [rising, full curve, poor fit]"
COc1cc2c(cc1OC)-c1c(OC)c(OC)cc3c1[C@H](C2)N(C)CC3,–,"14.6 µM [rising, partial curve, poor fit]"
CCCCn1c(=O)c(C(=O)NCc2ccncc2)c(O)c2ccccc21,–,"12.6 µM [falling, single point]"
COc1ccc2[nH]c(C)c(CCNCc3cn(C)c4ccccc34)c2c1,–,"23.1 µM [falling, partial curve, poor fit]"
COc1ccc(CN2CCCC(C(=O)c3sccc3C)C2)cc1O (configuration not stated),–,"35.5 µM [rising, single point]"
O=C(Nc1ccc(Cl)cc1)N1CC2CC(C1)c1cccc(=O)n1C2 (configuration not stated),–,"0.631 µM [rising, partial curve]"
CCn1cc(CN2CCCC(C(=O)c3sccc3C)C2)cn1 (configuration not stated),–,"0.0891 µM [rising, full curve, poor fit]"
O=C1NC(=S)NC(=O)C1=Cc1cccn1-c1ccc(O)cc1,"35.5 µM [falling, single point]","22.4 µM [rising, partial curve]"
CN1C(=O)c2ccccc2NC(=O)[C@]12O[C@@H]2c1ccccc1,–,"35.5 µM [rising, single point]"
CN1C2CCC1CC(OC(=O)CCN1CCCC1)C2 (configuration not stated),–,"23.1 µM [rising, partial curve, poor fit]"
Brc1ccc(CN2CCNCC2)s1,–,"13 µM [rising, partial curve, poor fit]"
COc1ccc2c(c1)c(C(=O)O)c(C)n2C(C)C,–,"8.2 µM [rising, partial curve]"
CC1CN=C(NCc2ccccc2Cl)S1 (configuration not stated),–,"14.1 µM [falling, single point]"
O=C1C(=O)c2ccccc2-c2ccccc21,"0.891 µM [rising, full curve]","0.562 µM [falling, full curve]"
Cc1nc2c(=O)n(C)c(=O)nc-2n(C)n1,"7.31 µM [rising, partial curve, poor fit]","2.06 µM [falling, full curve]"
c1cc(C2N3CCCN2CC3)ccn1 (configuration not stated),–,"5.62 µM [rising, single point]"
C=C(c1ccccc1)P(=O)(O)O,–,"29.1 µM [rising, single point]"
